Values of other authors as cited in patent US20220323426A1, “CHOLINERGIC POTENTIATION OF BINOCULAR VISION” (THE ROYAL INSTITUTION FOR THE ADVANCEMENT OF LEARNING / …, priority 2019, published 2022).

Conditions: Rogers et al., 1998; cited from earlier work

In the case of `COc1cc2c(cc1OC)C(=O)C(CC1CCN(Cc3ccccc3)CC1)C2` (stereo not shown) [donepezil], the half-life is listed as 80 h.
